PubChem BioAssay AID686937 | Drosophila RNAi Screening Center | 2013
Aim: 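Genes in the fly needed for secretion of protein constitutively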 (primary screen). Cells: Drosophila S2 cells expressing secreted horseradish peroxidase. Reagent: long dsRNA against Drosophila genes. Duration: about 5.5 days (5 days dsRNA, then 12 h reporter induction). Conditions: reporter expression induced after 5 days of dsRNA, read 12 h later; inducer not stated. Read-out: 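Chemiluminescent measurement of peroxidase in the medium 12 h after reporter induction, following 5 days of dsRNA, given as a z-score per plate; higher means more secretion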. Scale: z-score: higher = more reporter secreted into medium.
In all, the deposit lists about 23,000 reagents; shown is a random part of those that have a named target and a result. 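Reduced-secretion tags in replicate 1 do not always agree with the z-scores; no criterion for assigning the tags was given.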 Further read-outs or replicates are left out here. Not stated in the record: the amount of reagent.

Galphai (GeneID 38765) [DRSC11168]: z-score, replicate 1 = -0.02
CG42258 (GeneID 32196) [DRSC19741]: z-score, replicate 1 = -0.11
CG42258 (GeneID 32196) [DRSC19783]: z-score, replicate 1 = -0.49
pont (GeneID 53439) [DRSC17029]: z-score, replicate 1 = -1.19
Cyp310a1 (GeneID 35115) [DRSC03301]: z-score, replicate 1 = 0.38
Drep1 (GeneID 36290) [DRSC07527]: z-score, replicate 1 = 0.4
Rad17 (GeneID 41779) [DRSC16811]: z-score, replicate 1 = 0.1
CG5880 (GeneID 43268) [DRSC15906]: z-score, replicate 1 = 0.49
CG3092 (GeneID 37682) [DRSC04336]: z-score, replicate 1 = 0.32
CG32006 (GeneID 317817) [DRSC21768]: z-score, replicate 1 = -0.58
TfIIFbeta (GeneID 41290) [DRSC16884]: z-score, replicate 1 = 0.3
TfIIFbeta (GeneID 41290) [DRSC21447]: z-score, replicate 1 = -1.69; phenotype, replicate 1 = reduced secretion
PolG1 (GeneID 34792) [DRSC03621]: z-score, replicate 1 = 0.63
CG10984 (GeneID 39446) [DRSC09817]: z-score, replicate 1 = -0.04
Octbeta2R (GeneID 41549) [DRSC12917]: z-score, replicate 1 = -0.23
Octbeta2R (GeneID 41549) [DRSC15350]: z-score, replicate 1 = -0.33
Octbeta2R (GeneID 41549) [DRSC16165]: z-score, replicate 1 = 0.07
Grl62c (GeneID 5740507) [DRSC07964]: z-score, replicate 1 = 0.27

Continued (5 carried over from the part before).
CG10984 (GeneID 39446) [DRSC09817]: z-score, replicate 1 = -0.04
Octbeta2R (GeneID 41549) [DRSC12917]: z-score, replicate 1 = -0.23
Octbeta2R (GeneID 41549) [DRSC15350]: z-score, replicate 1 = -0.33
Octbeta2R (GeneID 41549) [DRSC16165]: z-score, replicate 1 = 0.07
Grl62c (GeneID 5740507) [DRSC07964]: z-score, replicate 1 = 0.27
His2Av (GeneID 43229) [DRSC16702]: z-score, replicate 1 = 0.05
Teh2 (GeneID 38502) [DRSC08458]: z-score, replicate 1 = 0.33
CG33679 (GeneID 3772494) [DRSC01436]: z-score, replicate 1 = 0.36
lbl (GeneID 42541) [DRSC16986]: z-score, replicate 1 = 0.35
CG12299 (GeneID 34483) [DRSC02158]: z-score, replicate 1 = 0.11
Mst57Da (GeneID 47954) [DRSC16744]: z-score, replicate 1 = 0.25
CG32163 (GeneID 317891) [DRSC09442]: z-score, replicate 1 = 0.23
CG32163 (GeneID 317891) [DRSC21888]: z-score, replicate 1 = 0.39
cpo (GeneID 45840) [DRSC13265]: z-score, replicate 1 = 0.25
cpo (GeneID 45840) [DRSC13273]: z-score, replicate 1 = -0.37
cpo (GeneID 45840) [DRSC14503]: z-score, replicate 1 = -2.71; phenotype, replicate 1 = reduced secretion
cpo (GeneID 45840) [DRSC15327]: z-score, replicate 1 = -3.95; phenotype, replicate 1 = reduced secretion
cpo (GeneID 45840) [DRSC16926]: z-score, replicate 1 = -2.81; phenotype, replicate 1 = reduced secretion
Esyt2 (GeneID 42929) [DRSC16082]: z-score, replicate 1 = 0.29
fend (GeneID 31843) [DRSC17601]: z-score, replicate 1 = 0.32
fend (GeneID 31843) [DRSC17867]: z-score, replicate 1 = 0.4
CG17726 (GeneID 41349) [DRSC15255]: z-score, replicate 1 = 0.57
Dsor1 (GeneID 31872) [DRSC18462]: z-score, replicate 1 = -0.7
fid (GeneID 43148) [DRSC14885]: z-score, replicate 1 = -0.26
fid (GeneID 43148) [DRSC16464]: z-score, replicate 1 = 0.5
CG34265 (GeneID 5740186) [DRSC08030]: z-score, replicate 1 = 0.12
eIF4H2 (GeneID 43645) [DRSC14582]: z-score, replicate 1 = 0.28
